Data as given in PubChem BioAssay AID1159594 (NIAID, 2016)

Aim: 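Mapping how TLR pathway genes contribute to TLR2/6 signalling in macrophage-like cells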
Cells: human THP-1 B5 reporter cells, PMA-differentiated into macrophage-like cells
Knock-down reagent: single siRNA against human genes
Time to read-out: 48 to 72 hours after siRNA transfection; ligand exposure 4 hours
Challenge: Pam2CSK4 (TLR2/6 agonist) stimulation for 4 hours before lysis; dose not given
Read-out: 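Robust z-score, relative to negative controls, of the firefly/renilla ratio from a TNF promoter reporter, after per-plate median/MAD scaling, mean of replicate screens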
Direction: TNF reporter z-score: higher = stronger TNF promoter reporter activity
Hit rule: 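Active when the mean z-score across replicates is at or beyond ±1.5 in either direction, matching a depositor grade of 50 or higher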
Calls: active = z-score beyond ±1.5 (either direction); inactive = z-score within ±1.5
The whole screen tested 756 reagents; this is an unselected part. Over the whole deposit, 130 (17%) were called active. 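Active calls cover both falls and rises of reporter activity; each row reflects one siRNA, not a gene-level verdict.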 Unmarked entries are inactive. The numbers tell different reagents against one gene apart. The record does not give: the amount of reagent.

| target gene | siRNA no. | TNF reporter z-score, replicate mean |
| --- | --- | --- |
| AKT1 (AKT serine/threonine kinase 1) | 1 | 0.843 |
| AKT1 (AKT serine/threonine kinase 1) | 2 | 0.842 |
| AKT1 (AKT serine/threonine kinase 1) | 3 | -2.57 (active) |
| AKT1 (AKT serine/threonine kinase 1) | 4 | -0.0187 |
| AKT1 (AKT serine/threonine kinase 1) | 5 | 0.337 |
| AKT1 (AKT serine/threonine kinase 1) | 6 | -0.981 |
| MAPK10 (mitogen-activated protein kinase 10) | 1 | -0.883 |
| MAPK10 (mitogen-activated protein kinase 10) | 2 | 0.00604 |
| MAPK10 (mitogen-activated protein kinase 10) | 3 | -0.441 |
| MAPK10 (mitogen-activated protein kinase 10) | 4 | -0.0274 |
| MAPK10 (mitogen-activated protein kinase 10) | 5 | 0.388 |
| MAPK10 (mitogen-activated protein kinase 10) | 6 | -0.00543 |
| MAP3K7 (mitogen-activated protein kinase kinase kinase 7) | 1 | -2.34 (active) |
| MAP3K7 (mitogen-activated protein kinase kinase kinase 7) | 2 | -3.47 (active) |
| MAP3K7 (mitogen-activated protein kinase kinase kinase 7) | 3 | -5.1 (active) |
| MAP3K7 (mitogen-activated protein kinase kinase kinase 7) | 4 | -2.37 (active) |
| MAP3K7 (mitogen-activated protein kinase kinase kinase 7) | 5 | -4.93 (active) |
| MAP3K7 (mitogen-activated protein kinase kinase kinase 7) | 6 | -3.52 (active) |
| IRAK2 (interleukin 1 receptor associated kinase 2) | 1 | -0.26 |
| IRAK2 (interleukin 1 receptor associated kinase 2) | 2 | 0.0042 |
| IRAK2 (interleukin 1 receptor associated kinase 2) | 3 | 0.541 |
| IRAK2 (interleukin 1 receptor associated kinase 2) | 4 | 0.0853 |
| IRAK2 (interleukin 1 receptor associated kinase 2) | 5 | -2 (active) |
| IRAK2 (interleukin 1 receptor associated kinase 2) | 6 | -0.854 |
| TBK1 (TANK binding kinase 1) | 1 | -0.972 |
| TBK1 (TANK binding kinase 1) | 2 | -1.32 |
| TBK1 (TANK binding kinase 1) | 3 | 0.576 |
| TBK1 (TANK binding kinase 1) | 4 | 0.283 |
| TBK1 (TANK binding kinase 1) | 5 | -0.966 |
| TBK1 (TANK binding kinase 1) | 6 | -0.794 |
| SP1 (Sp1 transcription factor) | 1 | -3.18 (active) |
| SP1 (Sp1 transcription factor) | 2 | -1.81 (active) |
| SP1 (Sp1 transcription factor) | 3 | 1.04 |
| SP1 (Sp1 transcription factor) | 4 | 1.7 (active) |
| SP1 (Sp1 transcription factor) | 5 | -0.0229 |
| SP1 (Sp1 transcription factor) | 6 | -1.6 (active) |
| IKBKE (inhibitor of nuclear factor kappa B kinase subunit epsilon) | 1 | -1.03 |
| IKBKE (inhibitor of nuclear factor kappa B kinase subunit epsilon) | 2 | -0.128 |
| IKBKE (inhibitor of nuclear factor kappa B kinase subunit epsilon) | 3 | -0.985 |
| IKBKE (inhibitor of nuclear factor kappa B kinase subunit epsilon) | 4 | 0.999 |
| IKBKE (inhibitor of nuclear factor kappa B kinase subunit epsilon) | 5 | -0.0605 |
| IKBKE (inhibitor of nuclear factor kappa B kinase subunit epsilon) | 6 | -0.119 |
| FOS (Fos proto-oncogene, AP-1 transcription factor subunit) | 1 | -0.0564 |
| FOS (Fos proto-oncogene, AP-1 transcription factor subunit) | 2 | 0.151 |
| FOS (Fos proto-oncogene, AP-1 transcription factor subunit) | 3 | -2.58 (active) |
| FOS (Fos proto-oncogene, AP-1 transcription factor subunit) | 4 | -0.675 |
| FOS (Fos proto-oncogene, AP-1 transcription factor subunit) | 5 | 0.497 |
| FOS (Fos proto-oncogene, AP-1 transcription factor subunit) | 6 | -0.988 |
| IL6 (interleukin 6) | 1 | 0.829 |
| IL6 (interleukin 6) | 2 | -0.481 |
| IL6 (interleukin 6) | 3 | -1.48 |
| IL6 (interleukin 6) | 4 | -0.106 |
| IL6 (interleukin 6) | 5 | -0.697 |
| IL6 (interleukin 6) | 6 | -0.2 |
| IKBKG | 1 | -1.97 (active) |
| IKBKG | 2 | -0.625 |
| IKBKG | 3 | -0.538 |
| IKBKG | 4 | -1.77 (active) |
| IKBKG | 5 | -0.0765 |
| IKBKG | 6 | -1.18 |
| EP300 (EP300 lysine acetyltransferase) | 1 | 1.69 (active) |
| EP300 (EP300 lysine acetyltransferase) | 2 | 0.0618 |
| EP300 (EP300 lysine acetyltransferase) | 3 | 0.2 |
| EP300 (EP300 lysine acetyltransferase) | 4 | 0.405 |
| EP300 (EP300 lysine acetyltransferase) | 5 | -0.531 |
| EP300 (EP300 lysine acetyltransferase) | 6 | 1.98 (active) |
| CD180 (CD180 molecule) | 1 | -0.597 |
| CD180 (CD180 molecule) | 2 | -0.616 |
| CD180 (CD180 molecule) | 3 | 0.0612 |
| CD180 (CD180 molecule) | 4 | -0.0543 |
| CD180 (CD180 molecule) | 5 | -1.12 |
| CD180 (CD180 molecule) | 6 | 0.00491 |
| PIK3CD | 1 | -1.25 |
| PIK3CD | 2 | -0.438 |
| PIK3CD | 3 | 0.806 |
| PIK3CD | 4 | 0.32 |
| PIK3CD | 5 | 0.78 |
| PIK3CD | 6 | 0.839 |
| CHUK | 1 | -1.1 |
| CHUK | 2 | -0.269 |
| CHUK | 3 | -0.16 |
| CHUK | 4 | -0.46 |
| CHUK | 5 | -0.767 |
| CHUK | 6 | 0.00306 |
| TBKBP1 (TBK1 binding protein 1) | 1 | 1.26 |
| TBKBP1 (TBK1 binding protein 1) | 2 | -1.8 (active) |
| TBKBP1 (TBK1 binding protein 1) | 3 | -0.272 |
| TBKBP1 (TBK1 binding protein 1) | 4 | 0.436 |
| TBKBP1 (TBK1 binding protein 1) | 5 | -0.969 |
| TBKBP1 (TBK1 binding protein 1) | 6 | -0.528 |
| IRF9 (interferon regulatory factor 9) | 1 | -0.596 |
| IRF9 (interferon regulatory factor 9) | 2 | -0.24 |
| IRF9 (interferon regulatory factor 9) | 3 | -0.705 |
| IRF9 (interferon regulatory factor 9) | 4 | -2.23 (active) |
| IRF9 (interferon regulatory factor 9) | 5 | -0.643 |
| IRF9 (interferon regulatory factor 9) | 6 | -0.822 |
| TNFAIP3 (TNF alpha induced protein 3) | 1 | -0.549 |
| TNFAIP3 (TNF alpha induced protein 3) | 2 | -0.166 |
| TNFAIP3 (TNF alpha induced protein 3) | 3 | -1.15 |
| TNFAIP3 (TNF alpha induced protein 3) | 4 | -1.07 |
| TNFAIP3 (TNF alpha induced protein 3) | 5 | 0.259 |
| TNFAIP3 (TNF alpha induced protein 3) | 6 | -1.73 (active) |
| TLR9 (toll like receptor 9) | 1 | -1.19 |
| TLR9 (toll like receptor 9) | 2 | -0.0044 |
| TLR9 (toll like receptor 9) | 3 | 0.762 |
| TLR9 (toll like receptor 9) | 4 | 1.34 |
| TLR9 (toll like receptor 9) | 5 | 0.232 |
| TLR9 (toll like receptor 9) | 6 | 1.02 |
| MAP3K1 (mitogen-activated protein kinase kinase kinase 1) | 1 | -0.431 |
| MAP3K1 (mitogen-activated protein kinase kinase kinase 1) | 2 | -0.446 |
| MAP3K1 (mitogen-activated protein kinase kinase kinase 1) | 3 | -0.0689 |
| MAP3K1 (mitogen-activated protein kinase kinase kinase 1) | 4 | -2.94 (active) |
| MAP3K1 (mitogen-activated protein kinase kinase kinase 1) | 5 | -0.408 |
| MAP3K1 (mitogen-activated protein kinase kinase kinase 1) | 6 | -1 |
| TLR1 (toll like receptor 1) | 1 | 2.39 (active) |
| TLR1 (toll like receptor 1) | 2 | -0.323 |
| TLR1 (toll like receptor 1) | 3 | -0.51 |
| TLR1 (toll like receptor 1) | 4 | 0.934 |
| TLR1 (toll like receptor 1) | 5 | -1.18 |
| TLR1 (toll like receptor 1) | 6 | -0.207 |
| DAB2IP (DAB2 interacting protein) | 1 | -0.522 |
| DAB2IP (DAB2 interacting protein) | 2 | -1.37 |
| DAB2IP (DAB2 interacting protein) | 3 | 0.0305 |
| DAB2IP (DAB2 interacting protein) | 4 | -1.02 |
| DAB2IP (DAB2 interacting protein) | 5 | -0.961 |
| DAB2IP (DAB2 interacting protein) | 6 | 0.972 |
| DUSP1 (dual specificity phosphatase 1) | 1 | -0.248 |
| DUSP1 (dual specificity phosphatase 1) | 2 | 1.12 |
| DUSP1 (dual specificity phosphatase 1) | 3 | -0.599 |
| DUSP1 (dual specificity phosphatase 1) | 4 | 1.6 (active) |
| DUSP1 (dual specificity phosphatase 1) | 5 | -0.592 |
| DUSP1 (dual specificity phosphatase 1) | 6 | 0.348 |
| TOLLIP (toll interacting protein) | 1 | -0.397 |
| TOLLIP (toll interacting protein) | 2 | -0.408 |
| TOLLIP (toll interacting protein) | 3 | 0.029 |
| TOLLIP (toll interacting protein) | 4 | -1.78 (active) |
| TOLLIP (toll interacting protein) | 5 | -1.17 |
| TOLLIP (toll interacting protein) | 6 | 0.124 |
| MAPK11 (mitogen-activated protein kinase 11) | 1 | -0.31 |
| MAPK11 (mitogen-activated protein kinase 11) | 2 | -1.19 |
| MAPK11 (mitogen-activated protein kinase 11) | 3 | -1.17 |
| MAPK11 (mitogen-activated protein kinase 11) | 4 | -0.247 |
| MAPK11 (mitogen-activated protein kinase 11) | 5 | 1.53 (active) |
| MAPK11 (mitogen-activated protein kinase 11) | 6 | -0.479 |

Single entries from the list.
TLR1 (toll like receptor 1) #5, TNF reporter z-score, replicate mean → -1.18
For “TNF reporter z-score, replicate mean”, TOLLIP (toll interacting protein) #2 reads -0.408
Result for IL6 (interleukin 6) #6 under “TNF reporter z-score, replicate mean”: -0.2
IKBKE (inhibitor of nuclear factor kappa B kinase subunit epsilon) #6, TNF reporter z-score, replicate mean: -0.119
Value for MAP3K1 (mitogen-activated protein kinase kinase kinase 1) #1 in “TNF reporter z-score, replicate mean”: -0.431
For “TNF reporter z-score, replicate mean”, CD180 (CD180 molecule) #6 is entered as 0.00491
